Measured values: article PMC8876638
Results are given in words; binding and its absence hold for the method and conditions named. Some results given as binding are weak or reduced against the parent protein; the word gives no strength.

Sequences of proteins named here, by UniProt entry; tags and fusion partners are left off. Residues count along the entry.
UniProt P04275, residues 764-2813: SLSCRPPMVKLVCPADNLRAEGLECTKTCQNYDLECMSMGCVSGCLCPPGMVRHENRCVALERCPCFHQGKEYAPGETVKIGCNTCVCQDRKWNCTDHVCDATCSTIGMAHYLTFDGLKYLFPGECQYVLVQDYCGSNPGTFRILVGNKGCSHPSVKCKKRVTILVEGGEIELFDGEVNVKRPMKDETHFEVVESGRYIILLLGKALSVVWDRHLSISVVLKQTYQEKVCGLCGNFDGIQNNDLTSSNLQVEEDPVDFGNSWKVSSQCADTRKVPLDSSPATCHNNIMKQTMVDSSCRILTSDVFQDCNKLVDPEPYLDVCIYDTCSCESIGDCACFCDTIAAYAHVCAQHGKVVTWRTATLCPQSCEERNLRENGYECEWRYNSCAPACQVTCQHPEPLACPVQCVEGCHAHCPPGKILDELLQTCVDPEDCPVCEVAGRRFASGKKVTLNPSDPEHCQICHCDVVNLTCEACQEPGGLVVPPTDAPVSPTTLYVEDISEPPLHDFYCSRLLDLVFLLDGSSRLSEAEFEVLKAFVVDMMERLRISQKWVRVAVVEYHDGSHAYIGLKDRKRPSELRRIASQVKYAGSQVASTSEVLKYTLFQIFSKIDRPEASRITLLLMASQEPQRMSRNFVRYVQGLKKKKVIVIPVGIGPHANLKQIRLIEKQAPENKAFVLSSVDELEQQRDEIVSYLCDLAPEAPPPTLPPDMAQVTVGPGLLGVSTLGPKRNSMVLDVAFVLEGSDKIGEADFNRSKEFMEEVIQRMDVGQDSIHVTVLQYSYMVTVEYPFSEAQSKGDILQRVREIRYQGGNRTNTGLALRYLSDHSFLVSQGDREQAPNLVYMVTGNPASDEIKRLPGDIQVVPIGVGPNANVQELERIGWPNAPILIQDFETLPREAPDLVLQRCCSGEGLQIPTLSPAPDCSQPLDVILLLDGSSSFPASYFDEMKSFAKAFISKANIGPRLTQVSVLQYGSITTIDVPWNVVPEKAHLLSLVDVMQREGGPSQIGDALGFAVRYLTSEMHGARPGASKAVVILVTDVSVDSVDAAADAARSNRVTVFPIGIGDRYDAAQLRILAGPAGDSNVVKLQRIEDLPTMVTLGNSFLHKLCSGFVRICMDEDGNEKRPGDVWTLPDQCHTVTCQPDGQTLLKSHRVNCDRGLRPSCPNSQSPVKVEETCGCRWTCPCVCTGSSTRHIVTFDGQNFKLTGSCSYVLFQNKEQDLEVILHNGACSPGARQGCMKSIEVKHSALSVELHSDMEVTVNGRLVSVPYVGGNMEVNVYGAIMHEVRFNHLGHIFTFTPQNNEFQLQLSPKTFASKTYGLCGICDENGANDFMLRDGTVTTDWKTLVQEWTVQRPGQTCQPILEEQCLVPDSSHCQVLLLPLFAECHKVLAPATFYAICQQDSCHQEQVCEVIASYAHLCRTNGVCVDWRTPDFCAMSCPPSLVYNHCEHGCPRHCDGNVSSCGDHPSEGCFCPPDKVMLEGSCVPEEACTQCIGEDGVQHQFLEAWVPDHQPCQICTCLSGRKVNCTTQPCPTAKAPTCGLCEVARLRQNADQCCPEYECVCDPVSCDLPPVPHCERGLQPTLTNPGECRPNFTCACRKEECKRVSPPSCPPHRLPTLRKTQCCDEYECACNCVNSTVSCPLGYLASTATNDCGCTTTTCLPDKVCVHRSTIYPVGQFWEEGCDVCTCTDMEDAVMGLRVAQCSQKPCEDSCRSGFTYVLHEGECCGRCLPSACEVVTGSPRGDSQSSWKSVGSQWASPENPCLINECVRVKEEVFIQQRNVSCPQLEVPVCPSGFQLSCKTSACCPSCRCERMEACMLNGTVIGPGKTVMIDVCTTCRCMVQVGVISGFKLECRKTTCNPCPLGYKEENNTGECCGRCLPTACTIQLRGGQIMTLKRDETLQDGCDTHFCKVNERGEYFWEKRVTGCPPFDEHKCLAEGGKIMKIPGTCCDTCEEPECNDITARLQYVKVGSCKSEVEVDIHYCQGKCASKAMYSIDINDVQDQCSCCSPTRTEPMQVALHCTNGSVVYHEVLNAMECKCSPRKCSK

Biological target: von Willebrand factor (human (endogenous in plasma of healthy volunteers)) (UniProt P04275)
Assay: flow cytometry on cells; diluted PRP (1:8 in PBS) with tirofiban 1.25 µg/mL, pre-incubated with peptide (200 µg/mL) 10 min at room temperature, then ristocetin 0.5 mg/mL 6 min; fixed; platelet-bound VWF detected with FITC anti-VWF antibody; read-out is the reduction of VWF on platelets; only the binder purified

binding: binds
Binder: EDDNAECAYVEAEGDEARDQRSNCQDED (N-terminal acetyl (Ac-); disulfide bond between residues C7 and C24) [opt-mono-ORbIT]
